Reference: PMC10111675
No constants are given. Whether binding was seen depends on the method and setting. Binding seen in cells or lysates may run through a third protein. Some binding calls cover weakened binding; strength is not graded here. Tags and fused reporters may be left off the sequences shown.

By UniProt entry, the sequences of proteins in these tests, tags left out.
UniProt Q9JMB7: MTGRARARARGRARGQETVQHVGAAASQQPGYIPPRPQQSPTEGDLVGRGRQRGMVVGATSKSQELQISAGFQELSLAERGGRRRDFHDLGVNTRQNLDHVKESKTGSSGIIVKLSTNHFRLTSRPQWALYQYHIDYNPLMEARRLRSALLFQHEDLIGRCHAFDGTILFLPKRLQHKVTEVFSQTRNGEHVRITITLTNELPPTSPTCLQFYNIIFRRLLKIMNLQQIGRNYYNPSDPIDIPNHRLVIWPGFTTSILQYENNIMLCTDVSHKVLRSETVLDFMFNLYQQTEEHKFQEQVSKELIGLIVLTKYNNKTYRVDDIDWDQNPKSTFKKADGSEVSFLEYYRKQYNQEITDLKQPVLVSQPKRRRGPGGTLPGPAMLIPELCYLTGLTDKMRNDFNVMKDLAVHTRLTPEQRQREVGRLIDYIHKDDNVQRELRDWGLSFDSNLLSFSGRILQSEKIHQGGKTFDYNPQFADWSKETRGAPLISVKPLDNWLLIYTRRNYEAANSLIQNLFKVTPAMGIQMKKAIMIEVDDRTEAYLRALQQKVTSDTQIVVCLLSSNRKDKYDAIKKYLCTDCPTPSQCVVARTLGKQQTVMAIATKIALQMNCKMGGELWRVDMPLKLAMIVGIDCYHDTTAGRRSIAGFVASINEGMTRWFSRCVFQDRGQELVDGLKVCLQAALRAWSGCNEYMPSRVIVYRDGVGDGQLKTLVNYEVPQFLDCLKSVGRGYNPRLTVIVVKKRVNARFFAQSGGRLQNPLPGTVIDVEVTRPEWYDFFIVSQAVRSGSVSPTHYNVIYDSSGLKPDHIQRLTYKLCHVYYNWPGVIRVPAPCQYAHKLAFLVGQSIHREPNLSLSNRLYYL

Molecular target: T1, HA-tagged Ck137956 truncation: middle part of the C-terminal region (298–447 aa) (mouse) (UniProt B1AYM9)
T1 sequence: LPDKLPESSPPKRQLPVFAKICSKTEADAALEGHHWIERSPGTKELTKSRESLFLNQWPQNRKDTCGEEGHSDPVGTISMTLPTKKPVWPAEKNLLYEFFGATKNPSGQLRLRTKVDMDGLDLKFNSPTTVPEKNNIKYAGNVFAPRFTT
Experiment: co-IP; HA-tagged Ck137956 (or truncations) and Flag-tagged Miwi (or truncations) co-transfected in HEK-293 T cells, 48 h; lysates with anti-HA Magnetic Beads or anti-DYKDDDDK Resin 12 h at 4 °C; reciprocal; immunoblot

Flag-tagged Miwi (from UniProt Q9JMB7 1-862)
binding: binds
